Results deposited as PubChem BioAssay AID602196 (INSERM, 2012)

- Aim: 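Modifiers of cisplatin sensitivity in A549 cells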
- System: human A549 lung cancer cells
- Reagent: siRNA pair against human genes
- Duration: 48 h transfection before cisplatin; time from cisplatin to read-out not stated
- Challenge: cisplatin at a dose killing half of control-siRNA cells; exact dose and duration not given
- Detection: 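Shift in cisplatin death relative to control siRNA, from -50 (all cells die) to +50 (no cells die); siRNAs harmful on their own scored 0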
- Scale: two-siRNA summed score (-2 to +2): higher = both siRNAs protect from cisplatin killing; -2 means both sensitise; mean protection from cisplatin (shift in death) and protection from cisplatin (shift in death), siRNA C and protection from cisplatin (shift in death), siRNA D: higher = protection from cisplatin killing
- Hit rule: 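Each siRNA scores 0 if harmful alone by LDH or WST-1, otherwise +1 if it reduces and -1 if it increases cisplatin killing; a gene is active when both siRNAs agree (sum +2 or -2)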
- Meaning of the calls: active = both siRNAs shift cisplatin killing the same way; inactive = no consistent shift, or siRNA harmful alone
The whole screen tested about 23,000 reagents; this is a random part of them. Over the whole deposit, 455 (2%) got an active call. 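Active includes both protection and sensitisation; some change values fall well beyond the stated -50 to +50 range.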 Reagents against one gene are numbered here. No sequences are given here. The record does not give: the amount of reagent.

target gene	reagent no.	two-siRNA summed score (-2 to +2)	mean protection from cisplatin (shift in death) (%)	protection from cisplatin (shift in death), siRNA C (%)	protection from cisplatin (shift in death), siRNA D (%)	Outcome
APOC1 (apolipoprotein C1)	1	1	24.6	20.9	28.2	inactive
ADCK5 (aarF domain containing kinase 5)	1	0	-3.4	3.2	-10	inactive
PTPRT (protein tyrosine phosphatase receptor type T)	1	0	4.5	8	1.1	inactive
TPST1 (tyrosylprotein sulfotransferase 1)	1	0	1.4	2.5	0.2	inactive
H2BC6 (H2B clustered histone 6)	1	0	8.6	10.9	6.4	inactive
IGFBP7-AS1 (IGFBP7 antisense RNA 1)	1	1	11.8	8.6	15.1	inactive
SELENON (selenoprotein N)	1	0	4.6	6.6	2.5	inactive
RWDD2A (RWD domain containing 2A)	1	0	-6	-6.1	-5.8	inactive
FSD2 (fibronectin type III and SPRY domain containing 2)	1	0	-2.7	-6.1	0.7	inactive
RIPK1 (receptor interacting serine/threonine kinase 1)	1	0	3.7	-3.8	11.3	inactive
ZNF771 (zinc finger protein 771)	1	0	0.6	-8.9	10	inactive
OR8K3	1	0	7.9	6.7	9.1	inactive
FLJ31132	1	-1	-8.7	0.7	-18	inactive
LOC143506	1	1	6.7	-7.6	21	inactive
QPRT (quinolinate phosphoribosyltransferase)	1	0	14.5	9.4	19.7	inactive
DQX1 (DEAQ-box RNA dependent ATPase 1)	1	0	10.5	14.4	6.7	inactive
OTUD6B (OTU deubiquitinase 6B)	1	0	5.8	8.8	2.9	inactive
LOC387648	1	-1	-6.4	7.4	-20.3	inactive
PKP2 (plakophilin 2)	1	0	-2.4	-8.2	3.5	inactive
LOC442718	1	0	4.2	3.2	5.1	inactive
LOC442464	1	0	11	2.9	19.1	inactive
TRIOBP (TRIO and F-actin binding protein)	1	0	1.1	1.2	1	inactive
GPRASP2 (G protein-coupled receptor associated sorting protein 2)	1	-1	-14.8	-9.8	-19.8	inactive
FBXW2 (F-box and WD repeat domain containing 2)	1	0	-16.8	-9.6	-24	inactive
ASB3 (ankyrin repeat and SOCS box containing 3)	1	0	-17.4	-13.8	-21.1	inactive
MYBBP1A (MYB binding protein 1a)	1	1	3.9	-3.6	11.5	inactive
OR5M10 (olfactory receptor family 5 subfamily M member 10)	1	0	7.2	10.7	3.6	inactive
PHOX2B (paired like homeobox 2B)	1	1	7.1	-0.7	14.9	inactive
NOTUM (notum, palmitoleoyl-protein carboxylesterase)	1	0	1.3	-3	5.6	inactive
OR14K1 (olfactory receptor family 14 subfamily K member 1)	1	-1	3.1	22.4	-16.3	inactive
FAM222B (family with sequence similarity 222 member B)	1	1	6	-2.1	14	inactive
NTN1 (netrin 1)	1	0	-1.5	6.9	-10	inactive
BMF (Bcl2 modifying factor)	1	0	-5.2	-3.9	-6.5	inactive
LOC387859	1	0	7.6	3.2	12	inactive
BMP1 (bone morphogenetic protein 1)	1	-1	-9.3	-4.8	-13.8	inactive
CCDC125 (coiled-coil domain containing 125)	1	2	12.6	10.9	14.3	active
RALA (RAS like proto-oncogene A)	1	0	1	6.3	-4.3	inactive
ANKRD53 (ankyrin repeat domain 53)	1	0	-3.1	2.9	-9	inactive

Active calls, among the entries above:
target gene	reagent no.	two-siRNA summed score (-2 to +2)	mean protection from cisplatin (shift in death) (%)	protection from cisplatin (shift in death), siRNA C (%)	protection from cisplatin (shift in death), siRNA D (%)	Outcome
CCDC125 (coiled-coil domain containing 125)	1	2	12.6	10.9	14.3	active

More results:
target gene	reagent no.	two-siRNA summed score (-2 to +2)	mean protection from cisplatin (shift in death) (%)	protection from cisplatin (shift in death), siRNA C (%)	protection from cisplatin (shift in death), siRNA D (%)	Outcome
PRDM14 (PR/SET domain 14)	1	0	6.8	8.9	4.7	inactive
LOC402587	1	0	10.7	12.4	9	inactive
LOC387693	1	0	2.9	5.2	0.6	inactive
RRP15 (ribosomal RNA processing 15 homolog)	1	0	-0.2	3.5	-4	inactive
RPS26 (ribosomal protein S26)	1	0	-11.2	-14.9	-7.6	inactive
RPS26 (ribosomal protein S26)	2	0	-2.6	-7.4	2.2	inactive
SPACDR (sperm acrosome developmental regulator)	1	-1	-6.7	-11.8	-1.6	inactive
BRWD3 (bromodomain and WD repeat domain containing 3)	1	0	-0.3	-7.9	7.4	inactive
BHLHA15 (basic helix-loop-helix family member a15)	1	0	-2.9	-15.8	10.1	inactive
NFE2L1 (NFE2 like bZIP transcription factor 1)	1	0	3.5	15.7	-8.8	inactive
NDUFB9 (NADH:ubiquinone oxidoreductase subunit B9)	1	0	-2.7	-7	1.7	inactive
NCR3LG1 (natural killer cell cytotoxicity receptor 3 ligand 1)	1	2	16.3	17.2	15.5	active
ENTREP3 (endosomal transmembrane epsin interactor 3)	1	0	-0.1	-7.7	7.5	inactive
LOC440535	1	0	27.9	23.8	32	inactive
POLR2DP1 (POLR2D pseudogene 1)	1	1	25.4	22.4	28.4	inactive
THOC7 (THO complex subunit 7)	1	0	0.1	2.6	-2.4	inactive
ZNF532 (zinc finger protein 532)	1	0	2.4	-2.4	7.2	inactive
LOC440251	1	0	10.5	12.1	8.8	inactive
MCRS1 (microspherule protein 1)	1	0	3.1	-2.5	8.8	inactive
